The target in this series is RAD52 (Homo sapiens) (UniProt P43351). The series can be described thus: binding assay. Conditions: FRET; 1 nM dsDNA with 10 nM RAD52, dsDNA bent upon binding; 30 mM Tris-acetate pH 7.5, 25 C; purified recombinant protein; protein details: 6xHis; label: Cy3 and Cy5.

Chains of the proteins cited; added tags and fusions are not shown. Lines headed by an entry give the natural chain unless they say otherwise; changes in a name come on top.
UniProt P43351: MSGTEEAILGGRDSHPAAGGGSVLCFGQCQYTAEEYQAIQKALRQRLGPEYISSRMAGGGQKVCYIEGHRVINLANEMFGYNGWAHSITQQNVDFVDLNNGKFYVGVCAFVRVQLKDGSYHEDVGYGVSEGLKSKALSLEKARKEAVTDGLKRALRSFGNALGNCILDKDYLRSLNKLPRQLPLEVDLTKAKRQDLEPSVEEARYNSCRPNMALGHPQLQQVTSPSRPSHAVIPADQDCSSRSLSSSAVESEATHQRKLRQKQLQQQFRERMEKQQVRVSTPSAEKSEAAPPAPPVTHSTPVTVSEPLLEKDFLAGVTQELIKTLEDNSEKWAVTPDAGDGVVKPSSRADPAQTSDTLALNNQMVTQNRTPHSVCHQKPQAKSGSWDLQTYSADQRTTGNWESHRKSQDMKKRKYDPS

Consider one sequence from patent US20180209956.

Construct, isoform or probe ends are uncertain for at least one entry.

For “CGTTGCGGATGGCTTAGAGCTTAATTGC / GCAATTAAGCTCAAGCCATCCGCAACG [Cy3-Oligo28-Cy5 / Oligo28-REV duplex]”, the binding result is listed as “binds”.
